Source: PubChem BioAssay AID188 (DTP/NCI, 2004)
Values are animals surviving of animals treated; these mice carried no tumour. Counts of survivors are from the toxicity check (mostly the fifth day) where no day follows; animals may have died later. Schedule codes are those of the source, read here as Q, the interval in days (D) or hours (H), X, the number of doses. Some structures stand for samples that the source files as different forms (salt, stereo form or complex); doses refer to the form tested. Marks such as (2×) say how often a value occurs here. Some doses were run more than once; the results are listed from low to high.

Tested on: CD2F1 mice, nontumored, toxicity/survival
Assay: NCI In Vivo Anticancer Drug Screen. Data for tumor model Nontumored Animals (Toxicity Test) in CD2F1 (CDF1) mice

Structure (SMILES): COc1cc(NS(C)(=O)=O)ccc1Nc1c2ccccc2nc2ccccc12
- survivor count (dose: 0.06 mg/kg/injection, schedule: Q03HX024 (ip), vehicle: other): 8 of 8 (2×)
- survivor count (dose: 0.12 mg/kg/injection, schedule: Q03HX024 (ip), vehicle: other): 8 of 8 (2×)
- survivor count (dose: 0.25 mg/kg/injection, schedule: Q01DX009 (ip), vehicle: other): 8 of 8 (2×)
- survivor count (dose: 0.25 mg/kg/injection, schedule: Q01DX009 (sc), vehicle: other): 8 of 8 (2×)
- survivor count (dose: 0.25 mg/kg/injection, schedule: Q03HX008 (ip), vehicle: other): 7 of 8 (2×)
- survivor count (dose: 0.25 mg/kg/injection, schedule: Q03HX016 (ip), vehicle: other): 8 of 8 (2×)
- survivor count (dose: 0.25 mg/kg/injection, schedule: Q03HX024 (ip), vehicle: other): 8 of 8 (2×)
- survivor count (dose: 0.25 mg/kg/injection, schedule: Q03HX024 (ip), vehicle: saline): 8 of 8
- survivor count (dose: 0.5 mg/kg/injection, schedule: Q01DX009 (ip), vehicle: other): 8 of 8 (2×)
- survivor count (dose: 0.5 mg/kg/injection, schedule: Q01DX009 (sc), vehicle: other): 8 of 8 (2×)
- survivor count (dose: 0.5 mg/kg/injection, schedule: Q03HX008 (ip), vehicle: other): 8 of 8 (2×)
- survivor count (dose: 0.5 mg/kg/injection, schedule: Q03HX016 (ip), vehicle: other): 8 of 8 (2×)
- survivor count (dose: 0.5 mg/kg/injection, schedule: Q03HX016 (ip), vehicle: saline): 8 of 8
- survivor count (dose: 0.5 mg/kg/injection, schedule: Q03HX024 (ip), vehicle: other): 8 of 8 (2×)
- survivor count (dose: 0.5 mg/kg/injection, schedule: Q03HX024 (ip), vehicle: saline): 8 of 8
- survivor count (dose: 0.5 mg/kg/injection, schedule: Q04DX003 (ip), vehicle: other): 8 of 8 (2×)
- survivor count (dose: 0.75 mg/kg/injection, schedule: Q01DX009 (ip), vehicle: other): 4 of 4
- survivor count (dose: 1.0 mg/kg/injection, schedule: Q01DX009 (ip), vehicle: other): 8 of 8 (2×)
- survivor count (dose: 1.0 mg/kg/injection, schedule: Q01DX009 (ip), vehicle: saline): 8 of 8 (2×)
- survivor count (dose: 1.0 mg/kg/injection, schedule: Q01DX009 (oral), vehicle: other): 8 of 8 (2×)
- survivor count (dose: 1.0 mg/kg/injection, schedule: Q01DX009 (sc), vehicle: other): 8 of 8 (2×)
- survivor count (dose: 1.0 mg/kg/injection, schedule: Q01DX009 (sc), vehicle: saline): 8 of 8 (2×)
- survivor count (dose: 1.0 mg/kg/injection, schedule: Q03HX008 (ip), vehicle: other): 8 of 8 (2×)
- survivor count (dose: 1.0 mg/kg/injection, schedule: Q03HX008 (ip), vehicle: saline): 8 of 8
- survivor count (dose: 1.0 mg/kg/injection, schedule: Q03HX016 (ip), vehicle: other): 8 of 8 (2×)
- survivor count (dose: 1.0 mg/kg/injection, schedule: Q03HX016 (ip), vehicle: saline): 8 of 8
- survivor count (dose: 1.0 mg/kg/injection, schedule: Q03HX024 (ip), vehicle: other): 8 of 8 (2×)
- survivor count (dose: 1.0 mg/kg/injection, schedule: Q03HX024 (ip), vehicle: saline): 8 of 8 (2×)
- survivor count (dose: 1.0 mg/kg/injection, schedule: Q04DX003 (ip), vehicle: other): 5 of 5 and 8 of 8 (2×)
- survivor count (dose: 1.5 mg/kg/injection, schedule: Q01DX009 (ip), vehicle: other): 2 of 3
- survivor count (dose: 2.0 mg/kg/injection, schedule: Q01DX001 (ip), vehicle: other): 8 of 8 (2×)
- survivor count (dose: 2.0 mg/kg/injection, schedule: Q01DX001 (sc), vehicle: other): 8 of 8 (2×)
- survivor count (dose: 2.0 mg/kg/injection, schedule: Q01DX009 (ip), vehicle: other): 8 of 8 (2×)
- survivor count (dose: 2.0 mg/kg/injection, schedule: Q01DX009 (ip), vehicle: saline): 8 of 8 (2×)
- survivor count (dose: 2.0 mg/kg/injection, schedule: Q01DX009 (oral), vehicle: other): 8 of 8 (2×)
- survivor count (dose: 2.0 mg/kg/injection, schedule: Q01DX009 (sc), vehicle: other): 8 of 8 (2×)
- survivor count (dose: 2.0 mg/kg/injection, schedule: Q01DX009 (sc), vehicle: saline): 8 of 8 (2×)
- survivor count (dose: 2.0 mg/kg/injection, schedule: Q03HX008 (ip), vehicle: other): 8 of 8 (2×)
- survivor count (dose: 2.0 mg/kg/injection, schedule: Q03HX008 (ip), vehicle: saline): 8 of 8 (2×)
- survivor count (dose: 2.0 mg/kg/injection, schedule: Q03HX016 (ip), vehicle: other): 8 of 8 (2×)
- survivor count (dose: 2.0 mg/kg/injection, schedule: Q03HX016 (ip), vehicle: saline): 8 of 8 (2×)
- survivor count (dose: 2.0 mg/kg/injection, schedule: Q03HX024 (ip), vehicle: other): 8 of 8 (2×)
- survivor count (dose: 2.0 mg/kg/injection, schedule: Q03HX024 (ip), vehicle: saline): 8 of 8 (2×)
- survivor count (dose: 2.0 mg/kg/injection, schedule: Q04DX003 (ip), vehicle: other): 4 of 4, 5 of 5, 8 of 8 (2×)
- survivor count (dose: 2.0 mg/kg/injection, schedule: Q04DX003 (ip), vehicle: saline): 8 of 8
- survivor count (dose: 2.0 mg/kg/injection, schedule: Q08DX002 (ip), vehicle: other): 8 of 8 (2×)
- survivor count (dose: 3.0 mg/kg/injection, schedule: Q01DX009 (ip), vehicle: other): 4 of 4
- survivor count (dose: 4.0 mg/kg/injection, schedule: Q01DX001 (ip), vehicle: other): 8 of 8 (2×)
- survivor count (dose: 4.0 mg/kg/injection, schedule: Q01DX001 (sc), vehicle: other): 8 of 8 (2×)
- survivor count (dose: 4.0 mg/kg/injection, schedule: Q01DX009 (ip), vehicle: other): 8 of 8 (2×)
- survivor count (dose: 4.0 mg/kg/injection, schedule: Q01DX009 (ip), vehicle: saline): 8 of 8 (2×)
- survivor count (dose: 4.0 mg/kg/injection, schedule: Q01DX009 (oral), vehicle: other): 8 of 8 (2×)
- survivor count (dose: 4.0 mg/kg/injection, schedule: Q01DX009 (oral), vehicle: saline): 8 of 8 (2×)
- survivor count (dose: 4.0 mg/kg/injection, schedule: Q01DX009 (sc), vehicle: other): 8 of 8 (2×)
- survivor count (dose: 4.0 mg/kg/injection, schedule: Q01DX009 (sc), vehicle: saline): 8 of 8 (2×)
- survivor count (dose: 4.0 mg/kg/injection, schedule: Q03HX008 (ip), vehicle: other): 6 of 8 (2×)
- survivor count (dose: 4.0 mg/kg/injection, schedule: Q03HX008 (ip), vehicle: saline): 8 of 8 (2×)
- survivor count (dose: 4.0 mg/kg/injection, schedule: Q03HX016 (ip), vehicle: other): 7 of 8 (2×)
- survivor count (dose: 4.0 mg/kg/injection, schedule: Q03HX016 (ip), vehicle: saline): 8 of 8 (2×)
- survivor count (dose: 4.0 mg/kg/injection, schedule: Q03HX024 (ip), vehicle: other): 7 of 8 (2×)
- survivor count (dose: 4.0 mg/kg/injection, schedule: Q03HX024 (ip), vehicle: saline): 8 of 8 (2×)
- survivor count (dose: 4.0 mg/kg/injection, schedule: Q04DX003 (ip), vehicle: other): 4 of 4, 5 of 5, 8 of 8 (2×)
- survivor count (dose: 4.0 mg/kg/injection, schedule: Q04DX003 (ip), vehicle: saline): 8 of 8
- survivor count (dose: 4.0 mg/kg/injection, schedule: Q08DX002 (ip), vehicle: other): 8 of 8 (2×)
- survivor count (dose: 4.0 mg/kg/injection, schedule: Q08DX002 (ip), vehicle: saline): 8 of 8
- survivor count (dose: 6.0 mg/kg/injection, schedule: Q01DX009 (ip), vehicle: other): 0 of 2
- survivor count (dose: 8.0 mg/kg/injection, schedule: Q01DX001 (ip), vehicle: other): 8 of 8 (2×)
- survivor count (dose: 8.0 mg/kg/injection, schedule: Q01DX001 (ip), vehicle: saline): 8 of 8
- survivor count (dose: 8.0 mg/kg/injection, schedule: Q01DX001 (oral), vehicle: other): 8 of 8 (2×)
- survivor count (dose: 8.0 mg/kg/injection, schedule: Q01DX001 (sc), vehicle: other): 8 of 8 (2×)
- survivor count (dose: 8.0 mg/kg/injection, schedule: Q01DX001 (sc), vehicle: saline): 8 of 8
- survivor count (dose: 8.0 mg/kg/injection, schedule: Q01DX009 (ip), vehicle: other): 8 of 8 (2×)
- survivor count (dose: 8.0 mg/kg/injection, schedule: Q01DX009 (ip), vehicle: saline): 8 of 8 (2×)
- survivor count (dose: 8.0 mg/kg/injection, schedule: Q01DX009 (oral), vehicle: other): 8 of 8 (2×)
